# Source: the supplement of paper PMC8728848
# Some of the results follow.
# How the values were obtained:
# Experiment in all cases: glycan array binding signal (z-score within array); higher = stronger binding
# Details in all cases: glycan notation: IUPAC condensed, linker removed
# [1] = target: Fuc(a1-2)[Gal(a1-3)]Gal(b1-4)GlcNAc(b1-2)Man(a1-3)[Fuc(a1-2)[Gal(a1-3)]Gal(b1-4)GlcNAc(b1-2)Man(a1-6)]Man(b1-4)GlcNAc(b1-4)[Fuc(a1-6)]GlcNAc
# Summary of the method: (§1)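 Glycan array data were curated from 3228 arrays in the Consortium for Functional Glycomics database and kept only where the protein sequence was available. Glycan names were converted to IUPAC-condensed notation, and columns mapping to the same glycan were averaged. The binding signal is a within-array Z-score, averaged across arrays of the same protein sequence at different concentrations or buffers and across linkers. Negative Z-scores can be read as non-binding.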
# [2] = target: Fuc(a1-2)[Gal(a1-3)]Gal(b1-4)GlcNAc(b1-3)GalNAc
# Summary of the method: as §1
# [3] = target: Fuc(a1-2)[Gal(a1-3)]Gal(b1-4)GlcNAc(b1-3)[Fuc(a1-2)[Gal(a1-3)]Gal(b1-4)GlcNAc(b1-6)]GalNAc
# Summary of the method: as §1
# [4] = target: Fuc(a1-2)[Gal(a1-3)]Gal(b1-4)GlcNAc(b1-6)GalNAc
# Summary of the method: as §1
# [5] = target: Fuc(a1-2)[Gal(a1-3)]Gal(b1-4)[Fuc(a1-3)]Glc
# Summary of the method: as §1
# [6] = target: Fuc(a1-2)[Gal(a1-3)]Gal(b1-4)[Fuc(a1-3)]GlcNAc
# Summary of the method: as §1
# [7] = target: Fuc(a1-2)[Gal(a1-3)]Gal(b1-4)[Fuc(a1-3)]GlcNAc(b1-3)GalNAc
# Summary of the method: as §1
# [8] = target: Fuc(a1-2)[Gal(a1-4)]Gal(b1-4)GlcNAc
# Summary of the method: as §1
# [9] = target: Fuc(a1-2)[GalNAc(a1-3)]Gal
# Summary of the method: as §1
# [10] = target: Fuc(a1-2)[GalNAc(a1-3)]Gal(b1-3)GalNAc(a1-3)[Fuc(a1-2)]Gal(b1-4)GlcNAc
# Summary of the method: as §1
# [11] = target: Fuc(a1-2)[GalNAc(a1-3)]Gal(b1-3)GalNAc(b1-3)Gal(a1-4)Gal(b1-4)Glc
# Summary of the method: as §1
# [12] = target: Fuc(a1-2)[GalNAc(a1-3)]Gal(b1-3)GlcNAc
# Summary of the method: as §1
# [13] = target: Fuc(a1-2)[GalNAc(a1-3)]Gal(b1-3)GlcNAc(b1-2)Man(a1-3)[Fuc(a1-2)[GalNAc(a1-3)]Gal(b1-3)GlcNAc(b1-2)Man(a1-6)]Man(b1-4)GlcNAc(b1-4)GlcNAc
# Summary of the method: as §1
# [14] = target: Fuc(a1-2)[GalNAc(a1-3)]Gal(b1-3)GlcNAc(b1-2)Man(a1-3)[Fuc(a1-2)[GalNAc(a1-3)]Gal(b1-3)GlcNAc(b1-2)Man(a1-6)]Man(b1-4)GlcNAc(b1-4)[Fuc(a1-6)]GlcNAc
# Summary of the method: as §1
# [15] = target: Fuc(a1-2)[GalNAc(a1-3)]Gal(b1-3)GlcNAc(b1-3)GalNAc
# Summary of the method: as §1
# [16] = target: Fuc(a1-2)[GalNAc(a1-3)]Gal(b1-3)GlcNAc(b1-6)GalNAc
# Summary of the method: as §1
# [17] = target: Fuc(a1-2)[GalNAc(a1-3)]Gal(b1-4)Glc
# Summary of the method: as §1
# [18] = target: Fuc(a1-2)[GalNAc(a1-3)]Gal(b1-4)GlcNAc
# Summary of the method: as §1
# [19] = target: Fuc(a1-2)[GalNAc(a1-3)]Gal(b1-4)GlcNAc(b1-2)Man
# Summary of the method: as §1
# [20] = target: Fuc(a1-2)[GalNAc(a1-3)]Gal(b1-4)GlcNAc(b1-2)Man(a1-3)[Fuc(a1-2)[GalNAc(a1-3)]Gal(b1-4)GlcNAc(b1-2)Man(a1-6)]Man(b1-4)GlcNAc(b1-4)GlcNAc
# Summary of the method: as §1
# [21] = target: Fuc(a1-2)[GalNAc(a1-3)]Gal(b1-4)GlcNAc(b1-2)Man(a1-3)[Fuc(a1-2)[GalNAc(a1-3)]Gal(b1-4)GlcNAc(b1-2)Man(a1-6)]Man(b1-4)GlcNAc(b1-4)[Fuc(a1-6)]GlcNAc
# Summary of the method: as §1
# [22] = target: Fuc(a1-2)[GalNAc(a1-3)]Gal(b1-4)GlcNAc(b1-3)Gal(b1-4)GlcNAc
# Summary of the method: as §1
# [23] = target: Fuc(a1-2)[GalNAc(a1-3)]Gal(b1-4)GlcNAc(b1-3)Gal(b1-4)GlcNAc(b1-3)Gal(b1-4)GlcNAc
# Summary of the method: as §1
# [24] = target: Fuc(a1-2)[GalNAc(a1-3)]Gal(b1-4)GlcNAc(b1-3)GalNAc
# Summary of the method: as §1
# [25] = target: Fuc(a1-2)[GalNAc(a1-3)]Gal(b1-4)GlcNAc(b1-3)[Fuc(a1-2)[GalNAc(a1-3)]Gal(b1-4)GlcNAc(b1-6)]GalNAc
# Summary of the method: as §1
# [26] = target: Fuc(a1-2)[GalNAc(a1-3)]Gal(b1-4)GlcNAc(b1-6)GalNAc
# Summary of the method: as §1
# [27] = target: Fuc(a1-2)[GalNAc(a1-3)]Gal(b1-4)[Fuc(a1-3)]GlcNAc
# Summary of the method: as §1
# [28] = target: Fuc(a1-2)[GalNAc(a1-3)]Gal(b1-4)[Fuc(a1-3)]GlcNAc(b1-3)GalNAc
# Summary of the method: as §1
# [29] = target: Fuc(a1-2)[GalNAc(a1-4)]Gal(b1-4)GlcNAc
# Summary of the method: as §1
# [30] = target: Fuc(a1-2)[GalNAc(b1-3)]Gal
# Summary of the method: as §1
# [31] = target: Fuc(a1-3)GlcNAc
# Summary of the method: as §1
# [32] = target: Fuc(a1-3)[Gal(b1-4)]Glc6S
# Summary of the method: as §1
# [33] = target: Fuc(a1-3)[Gal(b1-4)]GlcNAc
# Summary of the method: as §1
# [34] = target: Fuc(a1-3)[Gal(b1-4)]GlcNAc(b1-2)Man
# Summary of the method: as §1
# [35] = target: Fuc(a1-3)[Gal(b1-4)]GlcNAc(b1-2)Man(a1-3)[Fuc(a1-3)[Gal(b1-4)]GlcNAc(b1-2)Man(a1-6)]Man(b1-4)GlcNAc(b1-4)GlcNAc
# Summary of the method: as §1
# [36] = target: Fuc(a1-3)[Gal(b1-4)]GlcNAc(b1-2)Man(a1-3)[Fuc(a1-3)[Gal(b1-4)]GlcNAc(b1-2)Man(a1-6)]Man(b1-4)GlcNAc(b1-4)[Fuc(a1-6)]GlcNAc
# Summary of the method: as §1
# [37] = target: Fuc(a1-3)[Gal(b1-4)]GlcNAc(b1-3)Gal(b1-3)[Fuc(a1-4)]GlcNAc
# Summary of the method: as §1
binder,measurement,setting,value
PX9961W-pdi-543-27-543 (Parabacteroides distasonis) (protein) EGNATTTSYFLNDQQAIDAIDGLYERFHQEGCYGRELFWEQGAACDIVWGRTRGYNSLATLAYTGDESPLRDVFSRMYSTMSRANWIIQELVKKEKGTTLTAVEKRSLGEAYFSRGWAHYLIAYRYGTDKQGVPFVRYEDFPDDYDNSIPPQQATVMDNYKLIIEDMDKAIAYLPIFESYDADNRGRAHQAAAVAFKAKTYAYWATWDATQWNNVIEMVNQLENNYNRDLAPTFAELFSSDLKDYWNAEYLWTIPSIGGALPGGTEFPGIILENKGWGKYNGWGQMKPSYDIYEEMAKDGKGNDRLVRSILEYNQEFPFFGETRKFWSTSDLEAGFMINKYMDAFKYSDPVGEGAVSANGDWPTVRVNFPIIRFAEMLLFRAEAYLMTGQADKATADINRIRLRSNLTPLTGTATMKDLYHERRCELAFEFTDHLFDLKRWNRSSNADIKTLADKELNAHPRIRRYEDRANPESAFTIIGYEDYTNKNAYQAHMMVFPYPSEEITKSNGQLKQNEGY,glycan array binding signal (z-score),[1],0.926
same,glycan array binding signal (z-score),[2],-0.242
same,glycan array binding signal (z-score),[3],-0.802
same,glycan array binding signal (z-score),[4],-0.831
same,glycan array binding signal (z-score),[5],0.033
same,glycan array binding signal (z-score),[6],0.755
same,glycan array binding signal (z-score),[7],0.964
same,glycan array binding signal (z-score),[8],-0.708
same,glycan array binding signal (z-score),[9],-0.221
same,glycan array binding signal (z-score),[10],-1.17
same,glycan array binding signal (z-score),[11],-0.575
same,glycan array binding signal (z-score),[12],-0.704
same,glycan array binding signal (z-score),[13],-0.034
same,glycan array binding signal (z-score),[14],0.276
same,glycan array binding signal (z-score),[15],0.345
same,glycan array binding signal (z-score),[16],-0.379
same,glycan array binding signal (z-score),[17],0.547
same,glycan array binding signal (z-score),[18],-0.457
same,glycan array binding signal (z-score),[19],0.843
same,glycan array binding signal (z-score),[20],0.645
same,glycan array binding signal (z-score),[21],-0.977
same,glycan array binding signal (z-score),[22],-1.08
same,glycan array binding signal (z-score),[23],0.13
same,glycan array binding signal (z-score),[24],0.133
same,glycan array binding signal (z-score),[25],0.206
same,glycan array binding signal (z-score),[26],0.203
same,glycan array binding signal (z-score),[27],0.242
same,glycan array binding signal (z-score),[28],0.227
same,glycan array binding signal (z-score),[29],-0.092
same,glycan array binding signal (z-score),[30],-0.355
same,glycan array binding signal (z-score),[31],-0.334
same,glycan array binding signal (z-score),[32],0.459
same,glycan array binding signal (z-score),[33],0.714
same,glycan array binding signal (z-score),[34],0.236
same,glycan array binding signal (z-score),[35],0.348
same,glycan array binding signal (z-score),[36],-0.663
same,glycan array binding signal (z-score),[37],1.21

# An excerpt of these results, with bars between the fields.
binder | measurement | setting | value
PX9961W-pdi-543-27-543 (Parabacteroides distasonis) (protein) EGNATTTSYFLNDQQAIDAIDGLYERFHQEGCYGRELFWEQGAACDIVWGRTRGYNSLATLAYTGDESPLRDVFSRMYSTMSRANWIIQELVKKEKGTTLTAVEKRSLGEAYFSRGWAHYLIAYRYGTDKQGVPFVRYEDFPDDYDNSIPPQQATVMDNYKLIIEDMDKAIAYLPIFESYDADNRGRAHQAAAVAFKAKTYAYWATWDATQWNNVIEMVNQLENNYNRDLAPTFAELFSSDLKDYWNAEYLWTIPSIGGALPGGTEFPGIILENKGWGKYNGWGQMKPSYDIYEEMAKDGKGNDRLVRSILEYNQEFPFFGETRKFWSTSDLEAGFMINKYMDAFKYSDPVGEGAVSANGDWPTVRVNFPIIRFAEMLLFRAEAYLMTGQADKATADINRIRLRSNLTPLTGTATMKDLYHERRCELAFEFTDHLFDLKRWNRSSNADIKTLADKELNAHPRIRRYEDRANPESAFTIIGYEDYTNKNAYQAHMMVFPYPSEEITKSNGQLKQNEGY | glycan array binding signal (z-score) | [25] | 0.206
same | glycan array binding signal (z-score) | [26] | 0.203
